Assay results as given in patent publication US20240165208A1, “Mutant KRAS-Targeting Peptide and Use Thereof” (GJMEDI INC., priority 2020, published 2024).
No constants are given. Whether binding was seen depends on the method and setting. Some binding calls cover weakened binding; strength is not graded here.

How the values were obtained:
KRAS G12V protein [1] = molecular target: T1, KRAS G12V protein (UniProt P01116-2 1-188, limits assumed); experiment: ITC
T1 construct: also called mutant KRAS G12V; mutant Kirsten-RAS

KRAS G12V protein [2] = molecular target: T1, KRAS G12V protein; experiment: summary of the examples

B1: anticancer peptide GJ101 (peptide)
peptide: LYDVA
notes: Synthesised by solid phase peptide synthesis and purified by RP-HPLC to 95% or more; said to consist of 5 amino acids and to be derived from H-REV107; also called mutant KRAS-targeting anticancer peptide
KRAS G12V protein [1]
  binding: binds
KRAS G12V protein [2]
  binding: binds
